The record followed here is PubChem BioAssay AID1347426 (Functional Genomics Laboratory (NCATS/FGL), 2020).

In all, about 31,000 sequences went through this assay and about 1,400 (4.5%) were called active.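 Rule for the calls: active = median seed-adjusted z-score above 1 or below -1; inactive = the rest.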 The list shows a part of the results.

This experiment is described as follows: Novel Modifiers of Survival Motor Neuron (SMN) Protein: Gene Identification via Genome-wide siRNA Screen.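 Note: luminescence tracks full-length SMN protein made from the SMN2 reporter.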 Particulars: HEK293T SMN2-luciferase reporter, siRNA knockdown, 72 h; actives lie on both sides. A digest of the protocol: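 Genome-wide siRNA screen (10418 genes, 3 siRNAs each, 1 pmol per well) by reverse transfection in HEK293T cells stably carrying an SMN2-luciferase reporter; luminescence after 72 hours, normalized to negative-control siRNA, log10-transformed, MAD-scored.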
(In general: In a reporter assay the amount or activity of a reporter protein is the signal.)
As for CCGGUCAACUGUUACGUAUTT against GJA5, the median seed-adjusted z-score is inactive: 0.707. Regarding CCCUUACCUUAAUCGACGATT against CRB1, the median seed-adjusted z-score is inactive: 0. Next, GGAUGAGUAUAUUGCGGAUTT against RCN1: inactive: 0.236; GCAAGGCUUUGAGACUAAATT against ADK: inactive: 0.198. Turning to GGUUACUGCCAAUACAAUGTT against SF1, the median seed-adjusted z-score was inactive: 0.795. The figure for CUCUUACACUUGAUGUACATT against ZBTB2 is inactive: 0.217.

Turning to GGAUAUAGCCUUUUAACCUTT against KLKB1, the median seed-adjusted z-score was inactive: -0.256. Next, AUCACGACGUGGACCCUGATT against ZSCAN5A: inactive: 0.31; GGCGAGAUCCGGACUCUAATT against DFFA: inactive: -0.494; GCCCAUUCCUGUUUGCUGUTT against AGT: inactive: -0.121.

In the case of GUACCAGACCGGAUCACUATT against PDE10A, the median seed-adjusted z-score was inactive: -0.382.

Consider CAAAGUGACCAAGCAGAGATT against SF3A2, for which the median seed-adjusted z-score is active: -1.7. The figure for GCGGAGUCAUGGACAAGGATT against 1-Sep is inactive: 0.0103; for CCUUAAUGCUCAUCAGAGATT against ZNF26 it is inactive: 0; for GACAAAGUCUGUCACCCAATT against ZSCAN22 it is inactive: 0.277. The figure for GGAUCACACUGGAUGCUCATT against MLLT4 is inactive: -0.0762; for GGAAGGCUGCGGAUAAGCUTT against S100A16 it is inactive: 0.24; for GAACCAGGAGAGAAUAGAATT against PDGFRL it is inactive: 0.0203. As to GGGUAUUAGCCGACAGUAATT against CPEB1, the median seed-adjusted z-score was inactive: -0.349.

In the case of GCGGAAGUCUUACUCAAUATT against ELF4, the median seed-adjusted z-score was inactive: -0.0311. Turning to AGACAAAGAUUGAUAAACATT against SLC24A3, the median seed-adjusted z-score was inactive: 0.0177. The figure for ACAGCGAGGUCAAAAGAAATT against HSD11B1 is inactive: -0.174; for GCAUGUGCGUCAAUACCGATT against GCK it is inactive: -0.286. Next, CUGGUACAGUGAUCGGGAATT against PCDH12: inactive: 0.0177; GCAGCAACCCAAUAGGUCATT against RGL4: inactive: 0.201. Next, GAAUUAUGACCAACAUCUATT against CCR3: inactive: -0.334.

With GACAAUUGGUCAGAUAGAATT against RNASET2, the median seed-adjusted z-score is inactive: -0.126. The figure for GGACAGGAAUGUCAAAAUATT against SYTL3 is inactive: 0.236; for CCUUCACUCGCGAUAACAATT against COPS3 it is inactive: 0.176.

As to GCAGAAAGGUGUAGAAUGUTT against ZIM3, the median seed-adjusted z-score was inactive: -0.02. Next, CAAGCUAGAUCAGAAGUAUTT against SERPINA10: inactive: 0.0233. Next, GAACGAAGAUGUAACUGUUTT against TOM1L1: inactive: -0.0722; GGAAGAAUGUGGAGCUCAATT against ADRBK1: inactive: 0. The figure for GCUCUGAGAUCAAAUCCGATT against TCF4 is inactive: 0.107; for GGAAUAGUUCAACUACGAATT against CUL5 it is inactive: 0.0143. In the case of GGCAUUGCUUAAUGAUAUATT against SF3B1, the median seed-adjusted z-score was active: -3.65.

Turning to GCUCGGACUUCAACAACUATT against PPAP2C, the median seed-adjusted z-score is active: -1.12. Take AGGCCUUUCUUACCCAGAATT against MAP2K1: the median seed-adjusted z-score was inactive: 0.942. Next, GGGCUGGAUUGGUACAGGATT against HS3ST2: inactive: 0.133. The figure for GGAUUAUCUCCUCAUUACATT against MCF2L2 is inactive: -0.465. The figure for GCUUUGGAGAUGAGCCGUATT against CLPB is inactive: -0.985.

Regarding CACUAACUAUCAUGAGAUATT against PSMC6, the median seed-adjusted z-score is inactive: -0.578.

On to CCAGAAACGUACACCUGAUTT against COX7B, for which the median seed-adjusted z-score is active: -1.16. With CAACGGCAAUCAAGCGUAATT against SRP68, the median seed-adjusted z-score is inactive: 0.721. Next, GGCUCGUCCUUCCAAGUUATT against SLC23A2: inactive: -0.0585; CGUCGUCACUAACAGUCAATT against FCGRT: inactive: -0.00396; GGAUUUCCCUGCAUCGACATT against GALNT4: inactive: 0.419. Regarding GGUUGUAGUUUACGAUCAATT against DUSP16, the median seed-adjusted z-score was inactive: 0. Next, GACUCAUAUAUUACAUCAATT against ADAM23: inactive: -0.0279; GGGAGAACGUGACCAUCUATT against ICAM5: active: -1; UGAUCGCCUUGGUGAUUCATT against FOXH1: inactive: 0.

Regarding GGGCUUUUACUACAAGGAUTT against HR, the median seed-adjusted z-score is inactive: 0.751. As for UCAACUUUACGUGCACUGATT against HLA-B, the median seed-adjusted z-score is inactive: -0.355. As for GGCAGUUCAGUUUUUCGUATT against DNAJC7, the median seed-adjusted z-score was inactive: 0.268. Next, ACAAAGAGUUGAACAAAGATT against SEMA4A: inactive: 0.0377; ACCACUUUGAGGUCACUUUTT against TP73: inactive: 0.353; GAAUGAUAAUUGUUGGAGUTT against SLC18A2: inactive: 0.777. The figure for GAGUGGACACUAACCACAATT against SCNN1G is inactive: -0.616; for CAAGCCUAGUGCUUCGUUUTT against RAB5A it is inactive: 0.244. Next, CUCAGGAUGUUGUAUCUAATT against CEBPZ: inactive: 0.301. Turning to CAGAGAACCUUCAAGUUAATT against ZNF239, the median seed-adjusted z-score is inactive: -0.191. Next, CUCUGCUUAUCAUCAUCUATT against OPN4: inactive: 0.167; GGGCAUCAAUUAUCGACUUTT against SLC16A1: inactive: -0.277. For AGAUGAAGCUGCAAGUGUATT against COX10, the median seed-adjusted z-score is inactive: 0.339. The figure for ACAUAGCCGUGUCCAGGUATT against GLYCTK is inactive: 0.0328; for GCAUGGGCAACAAGAGUCATT against ATAD3C it is inactive: -0.535. Next, GGAUGUCAACUGUGCUUUUTT against MED24: active: -2.3.

CCCUAAGGUUGACAAUUGATT against GABRG2: the median seed-adjusted z-score is inactive: -0.479. The figure for CGUCAUGAGCCUCUACGAATT against PTPN5 is inactive: 0.22; for GGACUAGGAUAUGCCGUGATT against MYH15 it is inactive: -0.939; for GCCUGCAACUCAUCUUUCATT against S100A1 it is inactive: 0. As to CGACAAGUGGGAGAUGGAATT against ABL1, the median seed-adjusted z-score was inactive: -0.181.

In the case of CGGGUAUGUUGAUAGCAUATT against FAM12B, the median seed-adjusted z-score was inactive: 0.312.

For the sequence CCUCAGCAGUGUAAGAUAUTT against HAS2, the median seed-adjusted z-score is inactive: 0.354. Next, GUUGGAUCCUGGGACAAUATT against F13A1: inactive: -0.508; CGACGAGUCUUCCUGCAUATT against IRX6: inactive: -0.0329. Turning to AGAUGAGAUUUACCUGUGATT against UBE2G2, the median seed-adjusted z-score was inactive: -0.043. Next, CAAUAGGUGUGAAGAGGUATT against TRIM41: inactive: -0.164. The figure for CAAUGUCUCUAAGAAGGAUTT against STARD8 is inactive: -0.135; for CCAUUGCCGUAUGCAUCUATT against BTN2A1 it is inactive: 0.302. Next, CAAACUUCUUCGAGAAGAATT against DUSP9: inactive: 0.61; GGAGACUAGUAAGCACUAUTT against JARID1B: inactive: 0; CACUAGUUUUGUUAGCGAATT against ATP13A4: active: -1.09. For AGACCAUCGCAGAGACAGATT against SLC31A2, the median seed-adjusted z-score was inactive: 0.401. Next, GGGAAAGCACAAACUCAGATT against HOXA4: inactive: 0.194; GAUACUCGUAUUAAGCCUATT against USP32: inactive: 0.484; GGAUGUUGGUUUUGGGAUUTT against SEC14L2: inactive: -0.253. Take GAAACGAUAUGAAUGUAAATT against ZNF491: the median seed-adjusted z-score is inactive: 0.0642. Next, GAAAACGAUUUUGAACAUATT against PSEN1: inactive: -0.679; UAAUCUCAUUCAAAGAAUATT against NEUROG3: inactive: 0.212. Next, GAACUUACCUUCAACUACATT against NSD1: inactive: -0.372. The figure for UGCAUUCAAUGGAACCCAATT against FSHR is inactive: -0.462; for GAUUGAUCUUGUUCCACGATT against TRIP12 it is inactive: 0.16; for CGAUGAGAAUGUGAGUACUTT against ACCN1 it is inactive: -0.325. Regarding CCUCACGCGUGGAAAUACATT against ZDHHC11, the median seed-adjusted z-score is inactive: -0.098. The figure for UGUUCUCACUAAUAGGUUUTT against TRIML1 is inactive: 0; for AUAUCUCCGCUAUCAUUGATT against CYP4F22 it is inactive: 0.383. The figure for CCAAGUUUACUUGAUCGUATT against LSAMP is inactive: -0.12; for GCGACCACCUGAGCAAACATT against SP7 it is inactive: -0.0435; for GGAGAGGAUUAUUUCCGCATT against SDR9C7 it is inactive: 0.

GCUCCAAUGUCUACAGAAATT against MRGPRE: the median seed-adjusted z-score is inactive: -0.65. For GUCAAGAAUUUAUAGGGAATT against SOX5, the median seed-adjusted z-score was inactive: 0.123.

On to GCAUCUGCUCUGAAACAGATT against MPPE1, for which the median seed-adjusted z-score is inactive: -0.409. With GAACAAGCGCAUGACAAUATT against TERF2, the median seed-adjusted z-score was inactive: 0.246. With CAUAUUUACCUGAAUCACATT against TYMS, the median seed-adjusted z-score is inactive: -0.6. As for GAUCAAAUAUGACUUCCUATT against GPR103, the median seed-adjusted z-score was inactive: 0.

For the sequence CAAUAGCUUUGCUAGAUAUTT against HIAT1, the median seed-adjusted z-score is inactive: -0.0612. On to GGCACAGCUUAAACAGAAATT against JUN, for which the median seed-adjusted z-score is inactive: 0.381.
